# Results as given in the supplement of paper PMC8728848.
# Some of the results follow.
# What was measured:
# Test in all cases: glycan array binding signal (z-score within array); higher = stronger binding
# Conditions in all cases: glycan notation: IUPAC condensed, linker removed
# [1] = target: Neu5Ac(a2-6)Gal(b1-4)GlcNAc(b1-2)Man(a1-3)Man(b1-4)GlcNAc(b1-4)GlcNAc
# How it was run: (§1)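 The Consortium for Functional Glycomics database supplied 3228 glycan arrays, of which those lacking an available protein sequence were dropped. The binding signal, a within-array Z-score, was averaged across arrays of the same protein sequence and across linkers. Negative scores can be read as non-binding.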
# [2] = target: Neu5Ac(a2-6)Gal(b1-4)GlcNAc(b1-2)Man(a1-3)[Gal(b1-4)GlcNAc(b1-2)Man(a1-6)]Man(b1-4)GlcNAc(b1-4)GlcNAc
# How it was run: as §1
# [3] = target: Neu5Ac(a2-6)Gal(b1-4)GlcNAc(b1-2)Man(a1-3)[GlcNAc(b1-2)Man(a1-6)]Man(b1-4)GlcNAc(b1-4)GlcNAc
# How it was run: as §1
# [4] = target: Neu5Ac(a2-6)Gal(b1-4)GlcNAc(b1-2)Man(a1-3)[GlcNAc(b1-2)Man(b1-4)GlcNAc(b1-2)Man(a1-6)]Man(b1-4)GlcNAc(b1-4)GlcNAc
# How it was run: as §1
# [5] = target: Neu5Ac(a2-6)Gal(b1-4)GlcNAc(b1-2)Man(a1-3)[Man(a1-6)]Man(b1-4)GlcNAc(b1-4)GlcNAc
# How it was run: as §1
# [6] = target: Neu5Ac(a2-6)Gal(b1-4)GlcNAc(b1-2)Man(a1-3)[Neu5Ac(a2-6)Gal(b1-4)GlcNAc(b1-2)Man(a1-6)]Man(b1-4)GlcNAc(b1-4)GlcNAc
# How it was run: as §1
# [7] = target: Neu5Ac(a2-6)Gal(b1-4)GlcNAc(b1-2)Man(a1-6)Man(b1-4)GlcNAc(b1-4)GlcNAc
# How it was run: as §1
# [8] = target: Neu5Ac(a2-6)Gal(b1-4)GlcNAc(b1-2)Man(a1-6)[Gal(b1-4)GlcNAc(b1-2)Man(a1-3)]Man(b1-4)GlcNAc(b1-4)GlcNAc
# How it was run: as §1
# [9] = target: Neu5Ac(a2-6)Gal(b1-4)GlcNAc(b1-2)Man(a1-6)[GlcNAc(b1-2)Man(a1-3)]Man(b1-4)GlcNAc(b1-4)GlcNAc
# How it was run: as §1
# [10] = target: Neu5Ac(a2-6)Gal(b1-4)GlcNAc(b1-2)Man(a1-6)[Man(a1-3)]Man(b1-4)GlcNAc(b1-4)GlcNAc
# How it was run: as §1
# [11] = target: Neu5Ac(a2-6)Gal(b1-4)GlcNAc(b1-3)Gal(b1-3)GlcNAc
# How it was run: as §1
# [12] = target: Neu5Ac(a2-6)Gal(b1-4)GlcNAc(b1-3)Gal(b1-4)GlcNAc
# How it was run: as §1
# [13] = target: Neu5Ac(a2-6)Gal(b1-4)GlcNAc(b1-3)Gal(b1-4)GlcNAc(b1-3)Gal(b1-4)GlcNAc
# How it was run: as §1
# [14] = target: Neu5Ac(a2-6)Gal(b1-4)GlcNAc(b1-3)Gal(b1-4)[Fuc(a1-3)]GlcNAc(b1-3)Gal(b1-4)[Fuc(a1-3)]GlcNAc
# How it was run: as §1
# [15] = target: Neu5Ac(a2-6)Gal(b1-4)GlcNAc(b1-3)GalNAc
# How it was run: as §1
# [16] = target: Neu5Ac(a2-6)Gal(b1-4)GlcNAc6S
# How it was run: as §1
# Neu5Ac(a2-6)GalNAc = target: Neu5Ac(a2-6)GalNAc
# How it was run: as §1
# [17] = target: Neu5Ac(a2-6)GalNAc(b1-4)GlcNAc
# How it was run: as §1
# [18] = target: Neu5Ac(a2-6)GlcNAc(b1-4)GlcNAc
# How it was run: as §1
# [19] = target: Neu5Ac(a2-6)GlcNAc(b1-4)GlcNAc(b1-4)GlcNAc
# How it was run: as §1
# Neu5Ac(a2-8)Neu5Ac = target: Neu5Ac(a2-8)Neu5Ac
# How it was run: as §1
# [20] = target: Neu5Ac(a2-8)Neu5Ac(a2-3)Gal(b1-4)Glc
# How it was run: as §1
# [21] = target: Neu5Ac(a2-8)Neu5Ac(a2-3)[GalNAc(b1-4)]Gal(b1-4)Glc
# How it was run: as §1
# [22] = target: Neu5Ac(a2-8)Neu5Ac(a2-8)Neu5Ac
# How it was run: as §1
# [23] = target: Neu5Ac(a2-8)Neu5Ac(a2-8)Neu5Ac(a2-3)Gal(b1-4)Glc
# How it was run: as §1
# [24] = target: Neu5Ac(a2-8)Neu5Ac(a2-8)Neu5Ac(a2-3)[GalNAc(b1-4)]Gal(b1-4)Glc
# How it was run: as §1
# [25] = target: Neu5Ac(a2-8)Neu5Ac(a2-8)Neu5Ac(a2-8)Neu5Ac(a2-3)[GalNAc(b1-4)]Gal(b1-4)Glc
# How it was run: as §1
# [26] = target: Neu5Ac(b2-6)Gal(b1-4)GlcNAc
# How it was run: as §1
# Neu5Ac(b2-6)GalNAc = target: Neu5Ac(b2-6)GalNAc
# How it was run: as §1
# [27] = target: Neu5Ac9Ac(a2-3)Gal(b1-3)GlcNAc
# How it was run: as §1
# [28] = target: Neu5Ac9Ac(a2-3)Gal(b1-4)GlcNAc
# How it was run: as §1
# [29] = target: Neu5Ac9Ac(a2-6)Gal(b1-4)GlcNAc
# How it was run: as §1
# [30] = target: Neu5Gc(a2-3)Gal(b1-3)GlcNAc
# How it was run: as §1
# [31] = target: Neu5Gc(a2-3)Gal(b1-3)[Fuc(a1-4)]GlcNAc
# How it was run: as §1
# Neu5Gc(a2-3)Gal(b1-4)Glc = target: Neu5Gc(a2-3)Gal(b1-4)Glc
# How it was run: as §1
# [32] = target: Neu5Gc(a2-3)Gal(b1-4)GlcNAc
# How it was run: as §1
# [33] = target: Neu5Gc(a2-3)Gal(b1-4)[Fuc(a1-3)]GlcNAc
# How it was run: as §1
# [34] = target: Neu5Gc(a2-6)Gal(b1-4)GlcNAc
# How it was run: as §1
# Neu5Gc(a2-6)GalNAc = target: Neu5Gc(a2-6)GalNAc
# How it was run: as §1
# [35] = target: Neu5Gc(b2-6)Gal(b1-4)GlcNAc
# How it was run: as §1
binder,measurement,setting,value
"LERP (Drosophila melanogaster), B7Z0Q8 (protein) MRCSLQKDCAAPTQENFRQMRFPIVISLLLLLFCSGESVAADAANQLKFSTTECKLKEPIYGSTFDFSGLHSDLAHVVKSMNIGGDQFEFNICGNLSRTCNGESNVAACLKRQGKEYILGRQHELFYNNGNMFLKYKSGAKCDNGTADKPNYQLHVMFSCDYTLDAQPMHVTPYANEVCSFYISYRTPLACLSIPEGLQSNSCRVGDTKSNGTFDLMPLSDSNYHTSNRQGAFFVINVCKPVLYGENSMCPAGSSVCLFDSKATNPKERFINFGNVQTHPVVEKGQLLLRHESPTPCAKNSSANYTSVIYFSCDKFIRNAHPEFAGLGADSCTYQFNFATPLACNDLKPCTAFTSTNELLDLSSLSSKPARTLLKDGKNYTIAVCAHAGAPCQENGGACYEQNSTTISLGNSNSQLRFNQTGSLYLLYEDGAECSTATGMRRWSTKIEFVCANNATKDNGASTAGGSDSLKIIEDSNCQLLIQYQTPLACREPIRCKATTYVDHTNDGLGSSGDELIDLTPLISATDNYEARVELPASMEHLVPKTTKFFLNVCRPLVPKYQLGCAGGSAACMAKVTAAGAPEEERSMGFPLVSLTQRNRTFAELAYLKGDPCPTDNTSELSTHILFNCNMRAGRGQPVLRSVEDCAYRFEWETNVFCPPHECTFSADTCDLVHDELGRRFNFKSAPFTKDGKIEIDYNATKMSVNICGAHRKAMTDYSQALVNIFFTHESPNCGREGTMNVQIRLICSDQTESSSTISSDQQCNLLYVQRTPSICEFLSLGATQQNFESNGSTSSSTSSSSTSTTTSTTTQASPAGKPTKAATSTTTTTVGPDPAATPIGPTASVGTILGAILSVTFCVTCLGLLAFSPARRQRIRRLFRRSNSAVRYSRVQSNEEANLLLEPNGEFTESDDDMLL",glycan array binding signal (z-score),[1],0.87
same,glycan array binding signal (z-score),[2],1.42
same,glycan array binding signal (z-score),[3],-0.535
same,glycan array binding signal (z-score),[4],-0.443
same,glycan array binding signal (z-score),[5],2.27
same,glycan array binding signal (z-score),[6],0.108
same,glycan array binding signal (z-score),[7],0.432
same,glycan array binding signal (z-score),[8],0.337
same,glycan array binding signal (z-score),[9],2.42
same,glycan array binding signal (z-score),[10],2.27
same,glycan array binding signal (z-score),[11],-0.533
same,glycan array binding signal (z-score),[12],-0.658
same,glycan array binding signal (z-score),[13],0.666
same,glycan array binding signal (z-score),[14],-0.095
same,glycan array binding signal (z-score),[15],1.7
same,glycan array binding signal (z-score),[16],-0.446
same,glycan array binding signal (z-score),Neu5Ac(a2-6)GalNAc,-0.369
same,glycan array binding signal (z-score),[17],-0.224
same,glycan array binding signal (z-score),[18],-1.1
same,glycan array binding signal (z-score),[19],-0.509
same,glycan array binding signal (z-score),Neu5Ac(a2-8)Neu5Ac,-0.852
same,glycan array binding signal (z-score),[20],-0.855
same,glycan array binding signal (z-score),[21],-0.644
same,glycan array binding signal (z-score),[22],-0.319
same,glycan array binding signal (z-score),[23],-1.28
same,glycan array binding signal (z-score),[24],-0.978
same,glycan array binding signal (z-score),[25],-0.61
same,glycan array binding signal (z-score),[26],0.048
same,glycan array binding signal (z-score),Neu5Ac(b2-6)GalNAc,-0.401
same,glycan array binding signal (z-score),[27],-0.062
same,glycan array binding signal (z-score),[28],-0.362
same,glycan array binding signal (z-score),[29],1.31
same,glycan array binding signal (z-score),[30],0.176
same,glycan array binding signal (z-score),[31],0.556
same,glycan array binding signal (z-score),Neu5Gc(a2-3)Gal(b1-4)Glc,0.631
same,glycan array binding signal (z-score),[32],-0.227
same,glycan array binding signal (z-score),[33],-0.62
same,glycan array binding signal (z-score),[34],-1.33
same,glycan array binding signal (z-score),Neu5Gc(a2-6)GalNAc,-0.673
same,glycan array binding signal (z-score),[35],-1.73

# Looked up one by one from above, three records:
binder,measurement,setting,value
"LERP (Drosophila melanogaster), B7Z0Q8 (protein) MRCSLQKDCAAPTQENFRQMRFPIVISLLLLLFCSGESVAADAANQLKFSTTECKLKEPIYGSTFDFSGLHSDLAHVVKSMNIGGDQFEFNICGNLSRTCNGESNVAACLKRQGKEYILGRQHELFYNNGNMFLKYKSGAKCDNGTADKPNYQLHVMFSCDYTLDAQPMHVTPYANEVCSFYISYRTPLACLSIPEGLQSNSCRVGDTKSNGTFDLMPLSDSNYHTSNRQGAFFVINVCKPVLYGENSMCPAGSSVCLFDSKATNPKERFINFGNVQTHPVVEKGQLLLRHESPTPCAKNSSANYTSVIYFSCDKFIRNAHPEFAGLGADSCTYQFNFATPLACNDLKPCTAFTSTNELLDLSSLSSKPARTLLKDGKNYTIAVCAHAGAPCQENGGACYEQNSTTISLGNSNSQLRFNQTGSLYLLYEDGAECSTATGMRRWSTKIEFVCANNATKDNGASTAGGSDSLKIIEDSNCQLLIQYQTPLACREPIRCKATTYVDHTNDGLGSSGDELIDLTPLISATDNYEARVELPASMEHLVPKTTKFFLNVCRPLVPKYQLGCAGGSAACMAKVTAAGAPEEERSMGFPLVSLTQRNRTFAELAYLKGDPCPTDNTSELSTHILFNCNMRAGRGQPVLRSVEDCAYRFEWETNVFCPPHECTFSADTCDLVHDELGRRFNFKSAPFTKDGKIEIDYNATKMSVNICGAHRKAMTDYSQALVNIFFTHESPNCGREGTMNVQIRLICSDQTESSSTISSDQQCNLLYVQRTPSICEFLSLGATQQNFESNGSTSSSTSSSSTSTTTSTTTQASPAGKPTKAATSTTTTTVGPDPAATPIGPTASVGTILGAILSVTFCVTCLGLLAFSPARRQRIRRLFRRSNSAVRYSRVQSNEEANLLLEPNGEFTESDDDMLL",glycan array binding signal (z-score),[34],-1.33
same,glycan array binding signal (z-score),[16],-0.446
same,glycan array binding signal (z-score),[33],-0.62
